Experimental data published in patent US7628765B2, “Increasing retrievable cells from a breast duct” (Cytyc Corporation, priority 2001, dated 2009).

Test system: breast ducts of live rabbits
Test: Hematoxylin and Eosin cytology of collected ductal fluid
Type: in vivo, New Zealand rabbit
Settings: for cellular analysis of collected fluid: HE stain
Protocol: Davidson green dye (1 ul) was added to each microfuge tube containing fluid for the purpose of taking a picture. The rabbit was euthanized by IV injection of supersaturated KCI. PBS (1.5 ul) was added to each collection. The cells were spun onto Shandon coated slide using megafunnel and cytospin-3 machine (Shandon, Inc. located in Pittsburgh, Pa.) at a speed of 1500/per minute for 15 minutes. The cells were fixed on the slide in 95% ethanol for 10 minutes. The cells were stained using Hematoxylin and Eosin (HE) method of cytology of collected fluid.

## OC[C@@H](O)[C@@H](O)[C@H](O)[C@H](O)CO [mannitol, D-Mannitol]
Fluid collected from mannitol and PBS injected ducts
  cell morphology compared with PBS injected ducts: looked similar
Nipple A, duct A1 (0.4 ml mannitol 12.5%)
  cellular analysis of collected fluid: A few ductal
Nipple B, duct B1 (0.5 ml mannitol 12.5%)
  cellular analysis of collected fluid: A few ductal
Nipple C, duct C1 (0.7 ml mannitol 12.5%)
  cellular analysis of collected fluid: A few ductal
